The text below walks through data of PMC4301919, “Helical Defects in MicroRNA Influence Protein Binding by TAR RNA Binding Protein”.

Tags and fusion partners may be left off the protein sequences shown.

The test system of one series is T1, TRBP-dsRBD1.
T1 sequence (looked up): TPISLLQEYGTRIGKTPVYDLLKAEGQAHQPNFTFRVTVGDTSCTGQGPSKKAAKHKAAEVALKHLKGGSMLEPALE
In words: EMSA. The following applies: apparent Kd, nH >1; 50 mM sodium cacodylate pH 7.0, 50 mM potassium glutamate, 5% glycerol; EMSA 0.5 pM RNA, 30 min at room temperature, gel 0.25X TBE at 10 C; recombinant protein; residues 9-85; label: 5'-32P top strand (EMSA). For orientation: In EMSA bound probe runs differently from free probe, usually more slowly.

The subject of the next series is T2, TRBP-dsRBD2.
T2 sequence (looked up): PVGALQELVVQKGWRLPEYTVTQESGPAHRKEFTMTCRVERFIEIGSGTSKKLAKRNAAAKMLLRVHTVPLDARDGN
Description: EMSA. Particulars: apparent Kd, nH >1; 50 mM sodium cacodylate pH 7.0, 50 mM potassium glutamate, 5% glycerol; EMSA 0.5 pM RNA, 30 min at room temperature, gel 0.25X TBE at 10 C; recombinant protein; residues 139-215; label: 5'-32P top strand (EMSA).

On to “GUCAGCAGUGCCUUAG / CUAAGGCACUGCUGAC [ds16]”, for which the Kd was greater than 15 µM in the series on TRBP-dsRBD1 and greater than 11 µM in the series with TRBP-dsRBD2.
